The whole screen tested about 320,000 compounds, of which about 740 (0.23%) were called active. The shares of active, inactive and inconclusive entries below differ from those in the screen. The call rests on the fitted dose curve; in most records, active means well fitted activation curve with a large enough effect; inconclusive means small, poorly fitted or top-dose-only effect; inactive means no such curve, though single readings can be large or run the other way. Potencies beside an inconclusive call are fits to weak or partial responses and may not hold up.
Test: qHTS Assay for Small Molecule Inhibitors of Mitochondrial Division or Activators of Mitochondrial Fusion; further: nearly all actives have a fitted effect of over 45% in size;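 on growth rescue (activation): temperature-sensitive fusion mutants such as fzo1-1 at 37 °C on non-fermentable ethanol glycerol medium; % of control where 0% means no effect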
Details: S. cerevisiae fusion-defective mutant growth rescue, CellTiterGlo 48 h; growth rescue (activation): at 46.1 µM (top of the series) unless noted
Procedure, shortened: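 Yeast fusion mutant, YPEG (non-fermentable carbon), compound, 48 h at 37C non-permissive; CellTiterGlo added, 10 min RT, luminescence read. Rescued growth = division inhibition.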
Potency means the concentration at half of the fitted maximal effect.

| SMILES | growth rescue (activation) | Potency |
| --- | --- | --- |
| COC(=O)c1c(C(=O)OC)c2ccccn2c1C(=O)c1ccccc1 | inactive: 4.99% | – |
| CCc1cc2c(N[C@@H](C)C(=O)O)ncnc2s1 | – | inconclusive: 5.62 µM [activator, single point] |
| CCOc1ccccc1N1C(=O)c2ccc(C(=O)Nc3cccnc3)cc2C1=O | inactive: 0.0278% | – |
| COc1ccc(C2=NN(c3ccccc3)C(c3cccs3)C2)cc1 (centres undefined) | – | inconclusive: 3.98 µM [activator, full curve, poor fit] |
| COC(=O)c1ccc(/C=C2\SC(=S)N(CCCC(=O)NCCCN3CCOCC3)C2=O)cc1 | inactive: 16.4% | – |
| Cc1ccccc1/C(N)=N/OC(=O)c1cccs1 | – | inconclusive: 25.1 µM [activator, single point] |
| COc1ccc(C(=O)NCC(c2ccco2)N2CCc3ccccc32)c(OC)c1 (centres undefined) | – | inconclusive: 11.2 µM [activator, partial curve] |
| O=C1CSC(c2cccc(Cl)c2Cl)N1c1ccccn1 (centres undefined) | inactive: 15.8% | – |
| Cc1cc(C(=O)N2CCCC(CO)(Cc3ccc(F)cc3)C2)c(C)o1 (centres undefined) | inactive: 2.48% | – |
| Cc1ccc(/C(N)=N/OC(=O)c2ccc(F)cc2)cc1 | – | inconclusive: 25.1 µM [activator, single point] |
| COc1cc(CN2CC(=O)N(c3ccc(C)c(C)c3)C2=S)cc(OC)c1OC | – | inconclusive: 17.8 µM [activator, single point] |
| CS/C(N)=N/C(=S)Nc1cccc(Cl)c1 | inactive: 1.58% | – |
| CCCCOC(=O)c1ccc(NC(=O)c2c(OC)cccc2OC)cc1 | inactive: 4.45% | – |
| O=C(CSc1ccccn1)N1CCN(c2cccc(Cl)c2)CC1 | inactive: 4.76% | – |
| Cc1nn(-c2ccccc2)c(N)c1N=Nc1ccccc1 | – | inconclusive: 28.2 µM [activator, single point] |
| COc1ccc(C(=O)N/N=c2\oc3ccccc3cc2C(N)=O)cc1 | – | inconclusive: 22.4 µM [activator, single point] |
| O=C1c2cccc(OCC(=O)N3CCCc4ccccc43)c2CCN1Cc1ccc(Br)cc1 | – | inconclusive: 20 µM [activator, single point] |
| CCn1cc(Cl)c(C(=O)N2N=C(c3ccc4ccccc4c3)CC2c2ccccc2O)n1 (centres undefined) | – | inconclusive: 3.55 µM [activator, single point] |
| Cc1ccc(S(=O)(=O)N2CCN(C(=O)C3CCN(C(=O)c4ccccc4C)CC3)CC2)cc1C | inactive: -7.53% | – |
| Clc1ccc(CN(Cc2ccc(Cl)cc2)c2nn[nH]n2)cc1 | – | inconclusive: 3.98 µM [activator, single point] |
| COc1cc(/C=C/C(=O)OCC(=O)N2c3ccccc3CC2C)cc(OC)c1OC (centres undefined) | – | inconclusive: 20 µM [activator, single point] |
| CCN(CC)S(=O)(=O)c1cc(C)ccc1SC | – | inconclusive: 3.98 µM [activator, full curve] |
| CC1CCCc2sc3nc(NCc4ccco4)n4ncnc4c3c21 (centres undefined) | – | inconclusive: 3.55 µM [activator, single point] |
| Cc1cc(CSCc2ccc(Cl)cc2)no1 | – | inconclusive: 3.55 µM [activator, single point] |
| c1cnc2c(Oc3ncnc4sccc34)cccc2c1 | – | inconclusive: 12.6 µM [activator, partial curve] |

18 entries from above, bar-delimited.
SMILES | growth rescue (activation) | Potency
CCc1cc2c(N[C@@H](C)C(=O)O)ncnc2s1 | – | inconclusive: 5.62 µM [activator, single point]
CCOc1ccccc1N1C(=O)c2ccc(C(=O)Nc3cccnc3)cc2C1=O | inactive: 0.0278% | –
COC(=O)c1ccc(/C=C2\SC(=S)N(CCCC(=O)NCCCN3CCOCC3)C2=O)cc1 | inactive: 16.4% | –
Cc1ccccc1/C(N)=N/OC(=O)c1cccs1 | – | inconclusive: 25.1 µM [activator, single point]
COc1ccc(C(=O)NCC(c2ccco2)N2CCc3ccccc32)c(OC)c1 (centres undefined) | – | inconclusive: 11.2 µM [activator, partial curve]
O=C1CSC(c2cccc(Cl)c2Cl)N1c1ccccn1 (centres undefined) | inactive: 15.8% | –
Cc1cc(C(=O)N2CCCC(CO)(Cc3ccc(F)cc3)C2)c(C)o1 (centres undefined) | inactive: 2.48% | –
Cc1ccc(/C(N)=N/OC(=O)c2ccc(F)cc2)cc1 | – | inconclusive: 25.1 µM [activator, single point]
CS/C(N)=N/C(=S)Nc1cccc(Cl)c1 | inactive: 1.58% | –
CCCCOC(=O)c1ccc(NC(=O)c2c(OC)cccc2OC)cc1 | inactive: 4.45% | –
O=C1c2cccc(OCC(=O)N3CCCc4ccccc43)c2CCN1Cc1ccc(Br)cc1 | – | inconclusive: 20 µM [activator, single point]
CCn1cc(Cl)c(C(=O)N2N=C(c3ccc4ccccc4c3)CC2c2ccccc2O)n1 (centres undefined) | – | inconclusive: 3.55 µM [activator, single point]
Cc1ccc(S(=O)(=O)N2CCN(C(=O)C3CCN(C(=O)c4ccccc4C)CC3)CC2)cc1C | inactive: -7.53% | –
Clc1ccc(CN(Cc2ccc(Cl)cc2)c2nn[nH]n2)cc1 | – | inconclusive: 3.98 µM [activator, single point]
COc1cc(/C=C/C(=O)OCC(=O)N2c3ccccc3CC2C)cc(OC)c1OC (centres undefined) | – | inconclusive: 20 µM [activator, single point]
CCN(CC)S(=O)(=O)c1cc(C)ccc1SC | – | inconclusive: 3.98 µM [activator, full curve]
Cc1cc(CSCc2ccc(Cl)cc2)no1 | – | inconclusive: 3.55 µM [activator, single point]
c1cnc2c(Oc3ncnc4sccc34)cccc2c1 | – | inconclusive: 12.6 µM [activator, partial curve]

Additional entries

| SMILES | growth rescue (activation) | Potency |
| --- | --- | --- |
| Cc1ccc(C(=O)COC(=O)COc2ccccc2[N+](=O)[O-])s1 | inactive: 4.37% | – |
| O=C(CSCc1cccc(Cl)c1)N1CCN(Cc2ccc3c(c2)OCO3)CC1 | – | inconclusive: 31.6 µM [activator, single point] |
| COc1ccc(-c2nnc(NC(=O)c3ccc(F)cc3)o2)cc1 | – | inconclusive: 35.5 µM [activator, single point] |
| O=C(OCc1c(-c2ccccc2)ncc2ccccc12)c1cccc(Br)c1 | – | inconclusive: 10 µM [activator, single point] |
| CCOC(=O)c1sc(-c2ccccc2)cc1NC(=O)Nc1ccccc1 | – | inconclusive: 8.91 µM [activator, partial curve] |
| COc1ccc(-n2c(=O)c3ccccc3n(Cc3cccc(C)c3)c2=O)cc1OC | – | inconclusive: 20 µM [activator, partial curve] |
| O=S(=O)(/C=C/c1ccccc1)N1CCN(Cc2ccc3c(c2)OCO3)CC1 | – | inconclusive: 35.5 µM [activator, single point] |
| Cc1cc(C(=O)COC(=O)c2ccc(CO)cc2)c(C)n1CC1COc2ccccc2O1 (centres undefined) | – | inconclusive: 31.6 µM [activator, single point] |
| Cc1ccc2nsnc2c1S(=O)(=O)N1CCN(C(=O)C2CCCO2)CC1 (centres undefined) | inactive: 3.88% | – |
| COc1ccc2c(Cl)c(C(=O)N/N=C/c3c(C)[nH]c4ccccc34)sc2c1 | – | inconclusive: 10 µM [activator, partial curve] |
| CC(=O)C1=C(C)Nc2ncnn2C1c1cccc(Br)c1 (centres undefined) | – | inconclusive: 0.501 µM [activator, partial curve, poor fit] |
| CC1CCCC(NC(=O)CN(C)S(=O)(=O)c2cnc[nH]2)C1C (centres undefined) | – | inconclusive: 15.8 µM [activator, single point] |
| Cc1ccc(NC2=C(Cl)C(=O)OC2OC(=O)c2ccccc2)c(C)c1 (centres undefined) | – | inconclusive: 14.1 µM [activator, single point] |
| CC(=O)Nc1nc(C=C(Cl)Cl)cs1 | – | inconclusive: 25.1 µM [activator, single point] |
| O=C(Oc1ccc2[nH]cc(CCN3C(=O)c4ccccc4C3=O)c2c1)c1ccco1 | – | inconclusive: 17.8 µM [activator, single point] |
| Clc1ccc(CSc2ncnc3nc[nH]c23)cc1 | – | inconclusive: 35.5 µM [activator, single point] |
| Fc1ccc(COc2ccc(-c3nnco3)cc2)c(Cl)c1 | – | inconclusive: 12.6 µM [activator, partial curve] |
| C/C(=N\NC(=O)c1nnn(-c2nonc2N)c1C(C)C)c1cc(C)sc1C | – | active: 31.6 µM |
| COc1ccccc1N(C)S(=O)(=O)c1ccc(C(=O)NCc2ccc3c(c2)OCO3)cc1 | – | inconclusive: 0.562 µM [activator, partial curve, poor fit] |
| CS(=O)(=O)c1sc2nc(-c3cccs3)cc(-c3ccccc3)c2c1N | – | inconclusive: 12.6 µM [activator, partial curve] |
| COc1cccc(NC(=S)NNC(=O)Cn2nc(C(F)F)cc2C(F)F)c1 | inactive: -0.313% | – |
| C[C@@H](NC(=O)/C(C#N)=C/c1ccc(O)c(O)c1)c1ccccc1 | – | inconclusive: 16.4 µM [activator, single point] |
| Cc1cccc(C)c1NC(=S)NC1CCCCC1 | inactive: 4.38% | – |
| COc1cccc(CN(C)CC(=O)Nc2ccccc2C(=O)Nc2ccccc2)c1OC | inactive: -10.2% | – |
| Fc1ccc(-c2cc(-c3cccs3)cc(-c3ccccc3)n2)cc1 | inactive: 3.78% | – |

| SMILES | growth rescue (activation) | Potency |
| --- | --- | --- |
| N#Cc1c(N)sc(=S)c2c1CCN(Cc1ccccc1)C2 | – | inconclusive: 12.6 µM [activator, single point] |
| COc1cccc(N2CCN(S(=O)(=O)c3ccc4ccccc4c3)CC2)c1 | – | inconclusive: 12.6 µM [activator, partial curve] |
| CC(=O)c1cccc(OCC(=O)Nc2ccccc2N2CCOCC2)c1 | inactive: 9.13% | – |
| CCN1C(=O)/C(=C\c2cn(CCC#N)nc2-c2ccc(F)cc2)SC1=S | – | inconclusive: 22.4 µM [activator, single point] |
| COc1cc2ccccc2cc1-c1nnc(COc2ccccc2)o1 | – | active: 10 µM |
| CC(C)Oc1cc(O)c2c(=O)c(-c3ccc(O)cc3)coc2c1 | – | inconclusive: 17.8 µM [activator, single point] |
| COc1cccc2c1C(=O)C=C(C)C2=O | – | inconclusive: 11.2 µM [activator, partial curve] |
| O=C(Nc1ccc2c(c1)OCCO2)c1cc(F)c(F)cc1Cl | inactive: -1.03% | – |
| COc1ccc(CN(CC2CCCO2)C(=O)c2cc3sccc3n2C)c(OC)c1 (centres undefined) | – | inconclusive: 15.8 µM [activator, partial curve] |
| O=C1CCc2cc(OCCCCc3nnnn3C3CCCCC3)ccc2N1 | – | inconclusive: 17.8 µM [activator, partial curve] |
| COc1cccc(Nc2nc(N)c([N+](=O)[O-])c(NCc3ccccc3)n2)c1 | – | inconclusive: 10 µM [activator, partial curve] |
| CC1CC(C)CN(c2ccc(C(=O)NCc3ccc4c(c3)OCO4)cc2[N+](=O)[O-])C1 (centres undefined) | – | inconclusive: 20 µM [activator, single point] |
| COC(=O)c1ccc(C(=O)OC)c(NC(=S)N2CCN(c3ccc(F)cc3)CC2)c1 | – | inconclusive: 31.6 µM [activator, single point] |
| Cc1ccc(NC(=O)/C=C/c2ccc(Cl)cc2)nc1 | inactive: 2.98% | – |
| CCOC(=O)C1CCCN(C(=O)c2cc(Nc3ccc(OC)c(OC)c3)nc3ccccc23)C1 (centres undefined) | inactive: 0.177% | – |
| O=c1oc2cc(Br)ccc2n1CSC1=NCCS1 | inactive: 13.9% | – |
| CC(=O)Nc1ccc(C23CC4CC(CC(C4)C2)C3)cc1 | inactive: -5.64% | – |
| O=S(=O)(NCc1csc(-c2ccccc2)n1)c1ccc(Cl)s1 | – | inconclusive: 35.5 µM [activator, single point] |
| Cc1c(C(C)C)c(=O)n(-c2ccc(S(=O)(=O)N3CCOCC3)cc2)n1C | inactive: 14.5% | – |
| COc1ccc(N(C(=O)c2ccccc2)S(=O)(=O)c2cccs2)cc1 | inactive: 1.84% | – |
| CCc1nonc1NC(=O)c1oc2ccc(Br)cc2c1C | inactive: 0.619% | – |
| Cc1ccc(-c2nc3cnccn3c2Nc2ccc3c(c2)OCO3)cc1 | inactive: -6% | – |
| COc1cc([N+](=O)[O-])ccc1NC(=O)CSc1nccn1C | inactive: 4.99% | – |
| O=C(N/N=C/c1ccc(OCCCF)cc1)c1ccc(C(F)(F)F)cc1 | – | inconclusive: 35.5 µM [activator, single point] |

— PubChem BioAssay AID485298 (National Center for Advancing Translational Sciences (NCATS), 2010)
